# Measured values taken from the supplement of paper PMC8728848.
# Some of the results follow.
# B1: Gal 12 (Homo sapiens), Q96DT0 (protein)
# chain: MSQPSGGRAPGTRIYSWSCPTVMSPGEKLDPIPDSFILQPPVFHPVVPYVTTIFGGLHAGKMVMLQGVVPLDAHRFQVDFQCGCSLCPRPDIAFHFNPRFHTTKPHVICNTLHGGRWQREARWPHLALRRGSSFLILFLFGNEEVKVSVNGQHFLHFRYRLPLSHVDTLGIFGDILVEAVGFLNINPFVEGSREYPAGHPFLLMSPRLEVPCSHALPQGLSPGQVIIVRGLVLQEPKHFTVSLRDQAAHAPVTLRASFADRTLAWISRWGQKKLISAPFLFYPQRFFEVLLLFQEGGLKLALNGQGLGATSMNQQALEQLRELRISGSVQLYCVHS
# Key:
# Experiment in all cases: glycan array binding signal (z-score within array); higher = stronger binding
# Conditions in all cases: glycan notation: IUPAC condensed, linker removed
# [1] = biological target: Neu5Ac(a2-6)Gal(b1-4)GlcNAc(b1-3)[Neu5Ac(a2-6)Gal(b1-4)GlcNAc(b1-6)]GalNAc
# How it was run: (§1)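 Negative Z-scores can be read as non-binding. The Z-score is calculated within each array and then averaged across arrays of one protein sequence at different concentrations or buffers and across linkers. Arrays, 3228 in all, were curated from the Consortium for Functional Glycomics database and kept only where the protein sequence was available.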
# [2] = biological target: Neu5Ac(a2-6)Gal(b1-4)GlcNAc(b1-6)GalNAc
# How it was run: as §1
# [3] = biological target: Neu5Ac(a2-6)Gal(b1-4)GlcNAc(b1-6)[Gal(b1-3)GlcNAc(b1-3)]Gal(b1-4)Glc
# How it was run: as §1
# [4] = biological target: Neu5Ac(a2-6)Gal(b1-4)GlcNAc(b1-6)[Gal(b1-3)]GalNAc
# How it was run: as §1
# [5] = biological target: Neu5Ac(a2-6)Gal(b1-4)GlcNAc6S
# How it was run: as §1
# Neu5Ac(a2-6)GalNAc = biological target: Neu5Ac(a2-6)GalNAc
# How it was run: as §1
# [6] = biological target: Neu5Ac(a2-6)GalNAc(b1-4)GlcNAc
# How it was run: as §1
# [7] = biological target: Neu5Ac(a2-6)GalNAc(b1-4)GlcNAc6S
# How it was run: as §1
# [8] = biological target: Neu5Ac(a2-6)GlcNAc(b1-4)GlcNAc
# How it was run: as §1
# [9] = biological target: Neu5Ac(a2-6)GlcNAc(b1-4)GlcNAc(b1-4)GlcNAc
# How it was run: as §1
# Neu5Ac(a2-8)Neu5Ac = biological target: Neu5Ac(a2-8)Neu5Ac
# How it was run: as §1
# [10] = biological target: Neu5Ac(a2-8)Neu5Ac(a2-3)Gal(b1-3)GalNAc(b1-4)[Neu5Ac(a2-3)]Gal(b1-4)Glc
# How it was run: as §1
# [11] = biological target: Neu5Ac(a2-8)Neu5Ac(a2-3)Gal(b1-3)GalNAc(b1-4)[Neu5Ac(a2-8)Neu5Ac(a2-3)]Gal(b1-4)Glc
# How it was run: as §1
# [12] = biological target: Neu5Ac(a2-8)Neu5Ac(a2-3)Gal(b1-4)Glc
# How it was run: as §1
# [13] = biological target: Neu5Ac(a2-8)Neu5Ac(a2-3)Gal(b1-4)GlcNAc
# How it was run: as §1
# [14] = biological target: Neu5Ac(a2-8)Neu5Ac(a2-3)[Gal(b1-3)GalNAc(b1-4)]Gal(b1-4)Glc
# How it was run: as §1
# [15] = biological target: Neu5Ac(a2-8)Neu5Ac(a2-3)[GalNAc(b1-4)]Gal(b1-4)Glc
# How it was run: as §1
# [16] = biological target: Neu5Ac(a2-8)Neu5Ac(a2-8)Neu5Ac
# How it was run: as §1
# [17] = biological target: Neu5Ac(a2-8)Neu5Ac(a2-8)Neu5Ac(a2-3)Gal(b1-4)Glc
# How it was run: as §1
# [18] = biological target: Neu5Ac(a2-8)Neu5Ac(a2-8)Neu5Ac(a2-3)[Gal(b1-3)GalNAc(b1-4)]Gal(b1-4)Glc
# How it was run: as §1
# [19] = biological target: Neu5Ac(a2-8)Neu5Ac(a2-8)Neu5Ac(a2-3)[GalNAc(b1-4)]Gal(b1-4)Glc
# How it was run: as §1
# [20] = biological target: Neu5Ac(a2-8)Neu5Ac(a2-8)Neu5Ac(a2-8)Neu5Ac(a2-3)[GalNAc(b1-4)]Gal(b1-4)Glc
# How it was run: as §1
# [21] = biological target: Neu5Ac(a2-8)Neu5Gc(a2-3)Gal(b1-4)GlcNAc
# How it was run: as §1
# [22] = biological target: Neu5Ac(b2-6)Gal(b1-4)GlcNAc
# How it was run: as §1
# Neu5Ac(b2-6)GalNAc = biological target: Neu5Ac(b2-6)GalNAc
# How it was run: as §1
# [23] = biological target: Neu5Ac9Ac(a2-3)Gal(b1-3)GlcNAc
# How it was run: as §1
# [24] = biological target: Neu5Ac9Ac(a2-3)Gal(b1-4)GlcNAc
# How it was run: as §1
# [25] = biological target: Neu5Ac9Ac(a2-6)Gal(b1-4)GlcNAc
# How it was run: as §1
# [26] = biological target: Neu5Gc(a2-3)Gal(b1-3)GlcNAc
# How it was run: as §1
# [27] = biological target: Neu5Gc(a2-3)Gal(b1-3)[Fuc(a1-4)]GlcNAc
# How it was run: as §1
# Neu5Gc(a2-3)Gal(b1-4)Glc = biological target: Neu5Gc(a2-3)Gal(b1-4)Glc
# How it was run: as §1
# [28] = biological target: Neu5Gc(a2-3)Gal(b1-4)GlcNAc
# How it was run: as §1
# [29] = biological target: Neu5Gc(a2-3)Gal(b1-4)GlcNAc(b1-3)Gal(b1-4)GlcNAc(b1-2)Man(a1-3)[Neu5Gc(a2-3)Gal(b1-4)GlcNAc(b1-3)Gal(b1-4)GlcNAc(b1-2)Man(a1-6)]Man(b1-4)GlcNAc(b1-4)GlcNAc
# How it was run: as §1
# [30] = biological target: Neu5Gc(a2-3)Gal(b1-4)[Fuc(a1-3)]GlcNAc
# How it was run: as §1
# [31] = biological target: Neu5Gc(a2-6)Gal(b1-4)GlcNAc
# How it was run: as §1
# Neu5Gc(a2-6)GalNAc = biological target: Neu5Gc(a2-6)GalNAc
# How it was run: as §1
# [32] = biological target: Neu5Gc(a2-8)Neu5Ac(a2-3)Gal(b1-4)GlcNAc
# How it was run: as §1
# [33] = biological target: Neu5Gc(a2-8)Neu5Gc(a2-3)Gal(b1-4)GlcNAc
# How it was run: as §1
# [34] = biological target: Neu5Gc(a2-8)Neu5Gc(a2-3)Gal(b1-4)GlcNAc(b1-3)Gal(b1-4)GlcNAc
# How it was run: as §1
# [35] = biological target: Neu5Gc(a2-8)Neu5Gc(a2-6)Gal(b1-4)GlcNAc
# How it was run: as §1
# [36] = biological target: Neu5Gc(b2-6)Gal(b1-4)GlcNAc
# How it was run: as §1
binder,measurement,setting,value
B1,glycan array binding signal (z-score),[1],-0.362
same,glycan array binding signal (z-score),[2],-1.31
same,glycan array binding signal (z-score),[3],-1.1
same,glycan array binding signal (z-score),[4],-0.246
same,glycan array binding signal (z-score),[5],-0.163
same,glycan array binding signal (z-score),Neu5Ac(a2-6)GalNAc,-0.375
same,glycan array binding signal (z-score),[6],-0.032
same,glycan array binding signal (z-score),[7],-0.644
same,glycan array binding signal (z-score),[8],-0.842
same,glycan array binding signal (z-score),[9],0.332
same,glycan array binding signal (z-score),Neu5Ac(a2-8)Neu5Ac,-0.644
same,glycan array binding signal (z-score),[10],-0.299
same,glycan array binding signal (z-score),[11],0.155
same,glycan array binding signal (z-score),[12],0.311
same,glycan array binding signal (z-score),[13],-0.035
same,glycan array binding signal (z-score),[14],0.301
same,glycan array binding signal (z-score),[15],-0.207
same,glycan array binding signal (z-score),[16],0.004
same,glycan array binding signal (z-score),[17],-0.275
same,glycan array binding signal (z-score),[18],0.98
same,glycan array binding signal (z-score),[19],0.342
same,glycan array binding signal (z-score),[20],0.265
same,glycan array binding signal (z-score),[21],0.068
same,glycan array binding signal (z-score),[22],-0.611
same,glycan array binding signal (z-score),Neu5Ac(b2-6)GalNAc,-0.652
same,glycan array binding signal (z-score),[23],-0.24
same,glycan array binding signal (z-score),[24],0.03
same,glycan array binding signal (z-score),[25],0.001
same,glycan array binding signal (z-score),[26],-0.108
same,glycan array binding signal (z-score),[27],0.51
same,glycan array binding signal (z-score),Neu5Gc(a2-3)Gal(b1-4)Glc,-0.468
same,glycan array binding signal (z-score),[28],0.142
same,glycan array binding signal (z-score),[29],-0.256
same,glycan array binding signal (z-score),[30],0.879
same,glycan array binding signal (z-score),[31],-0.169
same,glycan array binding signal (z-score),Neu5Gc(a2-6)GalNAc,-0.417
same,glycan array binding signal (z-score),[32],-0.202
same,glycan array binding signal (z-score),[33],-0.454
same,glycan array binding signal (z-score),[34],-0.745
same,glycan array binding signal (z-score),[35],0.282
same,glycan array binding signal (z-score),[36],-0.218

# Reformatted: results already given.
binder | measurement | setting | value
B1 | glycan array binding signal (z-score) | Neu5Ac(a2-8)Neu5Ac | -0.644
same | glycan array binding signal (z-score) | [31] | -0.169
same | glycan array binding signal (z-score) | Neu5Gc(a2-6)GalNAc | -0.417
